# Structures can show the parent of a compound that is named as a salt. The list shows a part of the results. This data set is noisy: repeats of one test often differ as much as different tests do.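 Human fetal ventral-midbrain neural progenitor line ReNCell VM, differentiated without mitogens. Images stained for doublecortin (early neurons) or tyrosine hydroxylase (dopaminergic neurons) were scored by blinded raters against untreated wells (0 = no change). Repeats and both raters were averaged, and compounds averaging 2 or higher were picked as hits for retesting.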
# Columns and labels:
# [1] = system: ReNCell VM; test: neuronal differentiation score (DCX+ cell fraction vs untreated, manual image score) (score (-3 to 3)); higher = more neuronal differentiation; details: 2 uM, 2 weeks
# [2] = system: ReNCell VM; test: dopaminergic neuron differentiation score (TH+ cell fraction vs untreated, manual image score) (score (0 to 3)); higher = more TH+ dopaminergic neuron differentiation; details: 2 uM, 4 weeks, BDNF 10 ng/ml + GDNF 10 ng/ml
structure (smiles),measurement,setting,value
O=P1(N(CCCl)CCCl)NCCCO1 (centres undefined) [Cyclophosphamide],neuronal differentiation score,[1]; library: Prestwick,inactive: 0
same,dopaminergic neuron differentiation score,[2]; library: Prestwick,inactive: 0
CNCC(O)c1ccc(O)c(OC)c1 (stereo not drawn) [Metanephrine hydrochloride DL],neuronal differentiation score,[1]; library: Phytochemical,inactive: 0
same,dopaminergic neuron differentiation score,[2]; library: Phytochemical,inactive: 0
COc1ccc2c(c1)[nH]c1c(C)nccc12 [Harmine hydrochloride],neuronal differentiation score,[1]; library: Phytochemical,inactive: -2
same,dopaminergic neuron differentiation score,[2]; library: Phytochemical,inactive: 0
CC1=C2C(=CO[C@H](C)[C@H]2C)C(O)=C(C(=O)O)C1=O [citrinin],neuronal differentiation score,[1]; library: Natural,inactive: 0
same,dopaminergic neuron differentiation score,[2]; library: Natural,inactive: 0
C=C1C[C@@H]2[C@H](CC[C@]3(C)C(=O)CC[C@@H]23)[C@@]2(C)C=CC(=O)C=C12,neuronal differentiation score,[1]; library: Spectrum,inactive: 0
same,dopaminergic neuron differentiation score,[2]; library: Spectrum,inactive: 0
O=[N+]([O-])O[C@H]1CO[C@H]2[C@@H]1OC[C@H]2O[N+](=O)[O-] [Isosorbide dinitrate],neuronal differentiation score,[1]; library: Prestwick,inactive: 0
same,dopaminergic neuron differentiation score,[2]; library: Prestwick,inactive: 0
NC(=O)C[S+]([O-])C(c1ccccc1)c1ccccc1 (centres undefined) [Modafinil],neuronal differentiation score,[1]; library: Prestwick,inactive: 0
same,dopaminergic neuron differentiation score,[2]; library: Prestwick,inactive: 0
CC1=NCCc2c1[nH]c1cc(O)ccc21 [Harmalol hydrochloride dihydrate],neuronal differentiation score,[1]; library: Phytochemical,inactive: 0
same,dopaminergic neuron differentiation score,[2]; library: Phytochemical,inactive: 0
O=c1ccc2cc(O[C@@H]3O[C@H](CO)[C@@H](O)[C@H](O)[C@H]3O)c(O)cc2o1,neuronal differentiation score,[1]; library: Spectrum,inactive: 0
same,dopaminergic neuron differentiation score,[2]; library: Spectrum,inactive: 0
CN1CCC2=C[C@H](O)[C@H]3OC(=O)c4cc5c(cc4[C@H]3[C@@H]21)OCO5 [hippeastrine],neuronal differentiation score,[1]; library: Natural,inactive: 0
same,dopaminergic neuron differentiation score,[2]; library: Natural,inactive: 0
c1cncc([C@@H]2CCCCN2)c1,neuronal differentiation score,[1]; library: Spectrum,inactive: 0
same,dopaminergic neuron differentiation score,[2]; library: Spectrum,inactive: 0
O=C1NC(=O)c2c1c1c3ccccc3[nH]c1c1[nH]c3ccccc3c21 [Arcyriaflavin A],neuronal differentiation score,[1]; library: Tocriscreen,inactive: 0
same,dopaminergic neuron differentiation score,[2]; library: Tocriscreen,inactive: 0

# Quoted from above for reference:
structure (smiles),measurement,setting,value
CNCC(O)c1ccc(O)c(OC)c1 (stereo not drawn) [Metanephrine hydrochloride DL],dopaminergic neuron differentiation score,[2]; library: Phytochemical,inactive: 0
COc1ccc2c(c1)[nH]c1c(C)nccc12 [Harmine hydrochloride],neuronal differentiation score,[1]; library: Phytochemical,inactive: -2
